# Laboratory results: patent publication US11746133B2, “Cell penetrating peptides that inhibit IRF5 nuclear localization” (Rutgers, The State University of New Jersey, priority 2015, dated 2023)
# Part of at least one peptide drawing is inferred or uncertain, most often the ends. Residues, ends and D or L forms follow the SMILES beside them.
# Assays:
# IRF5 [1] = target: T1, IRF5 (Homo sapiens, UniProt Q13568); test: R848-induced IRF5 nuclear translocation in PBMCs by imaging flow cytometry; format: cell-based; conditions: inhibitor 1 hour, then 500 ng/mL R848 2 hours
# T1 construct: endogenous in cells; host or cells: healthy-donor human PBMCs; CD14+ monocytes and CD19+ B cells
# T1 sequence (Q13568 1-498): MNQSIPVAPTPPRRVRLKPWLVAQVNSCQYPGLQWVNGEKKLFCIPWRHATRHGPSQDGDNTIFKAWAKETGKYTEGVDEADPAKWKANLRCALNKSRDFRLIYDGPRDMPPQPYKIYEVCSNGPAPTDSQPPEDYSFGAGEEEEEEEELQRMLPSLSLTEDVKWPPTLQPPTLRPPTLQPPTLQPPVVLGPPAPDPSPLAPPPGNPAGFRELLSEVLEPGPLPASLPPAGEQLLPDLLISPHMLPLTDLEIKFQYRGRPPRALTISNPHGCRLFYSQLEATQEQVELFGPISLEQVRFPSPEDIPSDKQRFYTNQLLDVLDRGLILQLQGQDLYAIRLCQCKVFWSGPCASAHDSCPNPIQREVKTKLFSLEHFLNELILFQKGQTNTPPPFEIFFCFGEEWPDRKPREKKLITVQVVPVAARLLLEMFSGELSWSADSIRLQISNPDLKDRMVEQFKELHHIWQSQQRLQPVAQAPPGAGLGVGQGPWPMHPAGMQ
# Procedure: (§1) FIGS. 2A-E. Peptides (non-FITC-conjugated) inhibit R848-induced IRF5 nuclear translocation. Healthy donor PBMCs were pre-incubated with peptide inhibitors for 1 hour and then stimulated for 2 hours with the Toll-like receptor agonist R848. IRF5 cellular localization was determined in CD14+ monocytes (FIG. 2A) and CD19+ B cells (FIG. 2B) by staining with intracellular IRF5 and DRAQ5. Similarity scores between IRF5 and DRAQ5 were determined on the Amnis Imagestream using IDEAS software. […] Lamin B1 serves as a nuclear protein loading control. Cells were pre-incubated with the indicated inhibitors for 1 hour and then stimulated with LPS for 2 hours. […] IRF5 band intensity was normalized by Lamin B1, and relative fold change of IRF5 in nuclear portion was calculated over PBS treated sample. In FIGS. 2A-B and E, the bar on the left is mock (NT) and the bar on the right is R848.
# Imaging Flow Cytometry. PBMCs were isolated as previously outlined, and treated with inhibitor for 1-2 hours, followed by stimulation with R848 (500 ng/mL) or SLE Serum (2%). PBMCs were then stained for CD19 (BD Biosciences Catalog #: 562847) or CD14 (Biolegend Catalog #: 301806) for 1 hour, after which, cells were fixed overnight in 1% paraformaldehyde. The following day cells were and permeabilized in 0.1% Triton-X-100. Permeabilized cells were blocked in 5% BSA solution and subsequently stained for IRF5 (Abeam Catalog #: ab193245). Cells were washed and fixed in 1% paraformaldehyde. Prior to acquisition, the nuclear dye DRAQ5 was added at a 1:50 dilution. Images were acquired on the Amnis Image Stream using the 40× objective. Nuclear translocation was quantified in the Amnis IDEAS software suite. Cells were first filtered through the brightfield area vs brightfield aspect ratio gate to exclude non-viable and doublet events. Following which a similar gate of the DRAQ5 nuclear channel was used. This added an extra measure of stringency for cell viability. Images were gated on either CD14^+IRF5^+ or CD19^+IRF5^+ events, followed by gating on images with a Gradient RMS of greater than 20 on the DRAQ5 channel. This was done to select images with a high level of clarity. Finally, IRF5 nuclear translocation was determined through use of the similarity score feature contrasting IRF5 staining with DRAQ5 staining. A similarity score of greater than or equal to 2 was considered a translocation event.
# IRF5 peptide inhibitor blocks IRF5 nuclear translocation in both B cells and monocytes. […] As IRF5 has been implicated in the onset of autoimmune diseases in both monocytes and B cells, it was sought to be determined if IRF5 nuclear translocation could be inhibited in both cell populations following stimulation with the TLR7 agonist R848. […]
# murine IRF5 = target: T2, murine IRF5 (Mus musculus, UniProt P56477); test: LPS-induced nuclear translocation of murine IRF5 in RAW264.6 cells, Western blot; format: cell-based; conditions: pre-incubation 1 hour, 5 μg/mL LPS 2 hours
# T2 construct: RAW264.6 cells were treated with PBS or 5 μg/mL LPS for 2 hours; endogenous in cells; host or cells: RAW264.6 cells (so in the source)
# T2 sequence (P56477 1-497): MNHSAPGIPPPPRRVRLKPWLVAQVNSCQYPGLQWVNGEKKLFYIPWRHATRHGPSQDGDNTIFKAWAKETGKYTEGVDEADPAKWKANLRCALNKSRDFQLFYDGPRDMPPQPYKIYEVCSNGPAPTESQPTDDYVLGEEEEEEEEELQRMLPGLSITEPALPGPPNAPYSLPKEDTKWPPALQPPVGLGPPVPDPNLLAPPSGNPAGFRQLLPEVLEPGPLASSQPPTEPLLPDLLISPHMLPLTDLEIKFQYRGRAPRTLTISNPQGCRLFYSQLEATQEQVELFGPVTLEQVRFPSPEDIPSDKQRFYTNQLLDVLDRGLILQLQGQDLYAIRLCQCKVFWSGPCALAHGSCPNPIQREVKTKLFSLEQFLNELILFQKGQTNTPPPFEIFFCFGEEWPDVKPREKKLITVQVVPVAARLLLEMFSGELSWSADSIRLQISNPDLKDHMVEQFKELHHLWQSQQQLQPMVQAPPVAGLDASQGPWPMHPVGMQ
# IL6, IL10, IFNA = test: R848-induced cytokine expression in PBMCs by quantitative real-time PCR; format: cell-based, human; conditions: isolated PBMCs, inhibitor 1 hour, R848 stimulation 2 hours
# IL6 and IL10 = IL6 and IL10 production in Ramos B cell and THP monocyte cell lines after stimulation; format: cell-based, human; conditions: inhibitor 1 hour
# NZB/W F1 mice = format: in vivo
# IRF5 [2] = target: T1, IRF5; test: Cell fractionation and Western blot of nuclear IRF5 in primary monocytes; format: cell-based; conditions: isolated primary monocytes, inhibitor then R848 stimulation
# Procedure: as §1, with “control.” for “control. Cells were pre-incubated with the indicated inhibitors for 1 hour and then stimulated with LPS for 2 hours.”
# Cell Fractionation. Cells were fractionated according to manufacturer's protocol (Cell Signaling, Cell fractionation kit, #9038). Following fractionation, lysates were sonicated and boiled. Nuclear fraction was analyzed by Western blot as follows: 30 μL of lysate was loaded onto a 3-8% NuPAGE® Novex® Tris-Acetate gel (Life Technologies, #EA0378BOX), and transferred onto a 0.45 μm nitrocellulose membrane (Bio-Rad Laboratories). […] Membrane was incubated with Clarity™ ECL Western Blotting Substrate (Bio-Rad Laboratories) and chemiluminescence detected with a ChemiDoc™ MP Imaging System (Bio-Rad Laboratories). […]
# [3] = target: T3, human recombinant full-length IRF5 (Homo sapiens, UniProt Q13568); test: Biacore binding to immobilized recombinant IRF5; conditions: IRF5 immobilized on Sensor Chip CM5, contact 60 sec, dissociation 120 sec
# T3 construct: to human recombinant full-length IRF5 was investigated
# T3 sequence (Q13568 1-498): T1 sequence (Q13568 1-498)
smiles,measurement,setting,value
CC[C@H](C)[C@H](NC(=O)[C@H](CCCCN)NC(=O)[C@@H](NC(=O)[C@H](CCC(N)=O)NC(=O)[C@H](CCCNC(=N)N)NC(=O)[C@@H](N)CC(=O)O)[C@@H](C)CC)C(=O)N[C@@H](Cc1c[nH]c2ccccc12)C(=O)N[C@@H](Cc1ccccc1)C(=O)N[C@@H](CCC(N)=O)C(=O)N[C@@H](CC(N)=O)C(=O)N[C@@H](CCCNC(=N)N)C(=O)N[C@@H](CCCNC(=N)N)C(=O)N[C@@H](CCSC)C(=O)N[C@@H](CCCCN)C(=O)N[C@@H](Cc1c[nH]c2ccccc12)C(=O)N[C@@H](CCCCN)C(=O)N[C@@H](CCCCN)C(=O)N1CCC[C@H]1C(=O)N[C@@H](CCCNC(=N)N)C(=O)N[C@@H](CCCNC(=N)N)C(=O)N[C@H](C(=O)N[C@@H](CCCNC(=N)N)C(=O)N[C@@H](CC(C)C)C(=O)N[C@@H](CCCCN)C(=O)O)C(C)C [IRF5 5′NLS] (H-DRQIKIWFQNRRMKWKKPRRVRLK-OH),reduction in IRF5 nuclear translocation in B cells between scrambled control and inhibitor,IRF5 [1],~2 fold
same,reduction in IRF5 nuclear translocation in monocytes between scrambled control and inhibitor,IRF5 [1],~3 fold
same,IRF5 nuclear translocation in B cells,IRF5 [1]; vs scrambled control,significant reduction
same,IRF5 nuclear translocation in monocytes,IRF5 [1]; vs scrambled control,significant reduction
same,nuclear translocation of murine IRF5,murine IRF5,Inhibition of nuclear translocation
same,reduction in IFNa expression,"IL6, IL10, IFNA",52%
same,reduction in IL6 expression,"IL6, IL10, IFNA",70%
same,reduction in IL10 expression,"IL6, IL10, IFNA",35%
same,inhibition of IL6 expression in monocytes,"IL6 and IL10; THP1 cells, LPS 2 hours",2 fold
same,reduction in IL6 expression in Ramos B cells,IL6 and IL10; anti-IgM plus CpG-B 2 hours,3 fold
same,proteinuria (Bradford protein assay),"NZB/W F1 mice; NZB/W F1 mice, 100 μg/day IP on day 0, 1, 4, 7, 14 from 8 or 27 weeks of age, p<0.05 vs Ctrl",reduces proteinuria
same,mice positive for autoantibodies (sera 1:100 on HEp-2 cells),"NZB/W F1 mice; NZB/W mice, 100 μg IP over 2 weeks from 8 weeks of age, read at week 27, n=6",zero out of six
same,"levels of IRF5 in the nucleus (cell fractionation, Western blot)",IRF5 [2],Reduced levels of IRF5
same,binding to human recombinant full-length IRF5 (Biacore-T200),[3],Specific binding
